# According to US12286661B2, “Methods for making high intensity sweeteners” (Firmenich Incorporated, priority 2018, dated 2025):
# Assay: Analytical results: observed concentration of the sensory test solutions
# Assay type: physicochemical
# Conditions: theoretical 175 ppm in LSB, n = 2
structure (smiles),measurement,setting,value
C[C@H](CC[C@@H](O[C@@H]1O[C@H](CO[C@H]2O[C@H](CO)[C@@H](O)[C@H](O)[C@H]2O)[C@@H](O)[C@H](O)[C@H]1O[C@@H]1O[C@H](CO)[C@@H](O)[C@H](O)[C@H]1O)C(C)(C)O)C1CC[C@@]2(C)C3CC=C4C(CC[C@H](O[C@@H]5O[C@H](CO)[C@@H](O)[C@H](O)[C@H]5O)C4(C)C)[C@]3(C)[C@H](O)C[C@]12C (some centres unmarked) [Compound 1],Observed,Test Day,132.20 ± 1.54 µM
same,Observed,the day before the testing day,134.48 ± 7.31 µM
